Laboratory results reported in publication PMC12418388.

Amino acid sequences for entries named in this document (tags omitted). A change or cut given only in a name is not applied to a line headed by its entry.
UniProt P54823: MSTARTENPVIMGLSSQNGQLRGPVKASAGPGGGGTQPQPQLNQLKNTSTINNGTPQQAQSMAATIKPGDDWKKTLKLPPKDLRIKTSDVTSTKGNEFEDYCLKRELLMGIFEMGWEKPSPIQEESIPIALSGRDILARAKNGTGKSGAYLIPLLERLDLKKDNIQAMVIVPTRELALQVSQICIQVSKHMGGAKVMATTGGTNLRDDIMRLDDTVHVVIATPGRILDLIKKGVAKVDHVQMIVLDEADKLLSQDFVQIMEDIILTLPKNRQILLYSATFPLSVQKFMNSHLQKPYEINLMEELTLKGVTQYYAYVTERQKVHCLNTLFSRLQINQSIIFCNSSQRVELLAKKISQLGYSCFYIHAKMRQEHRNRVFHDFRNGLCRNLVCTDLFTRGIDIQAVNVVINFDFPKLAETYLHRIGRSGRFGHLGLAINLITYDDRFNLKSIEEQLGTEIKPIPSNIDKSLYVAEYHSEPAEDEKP
UniProt Q62167: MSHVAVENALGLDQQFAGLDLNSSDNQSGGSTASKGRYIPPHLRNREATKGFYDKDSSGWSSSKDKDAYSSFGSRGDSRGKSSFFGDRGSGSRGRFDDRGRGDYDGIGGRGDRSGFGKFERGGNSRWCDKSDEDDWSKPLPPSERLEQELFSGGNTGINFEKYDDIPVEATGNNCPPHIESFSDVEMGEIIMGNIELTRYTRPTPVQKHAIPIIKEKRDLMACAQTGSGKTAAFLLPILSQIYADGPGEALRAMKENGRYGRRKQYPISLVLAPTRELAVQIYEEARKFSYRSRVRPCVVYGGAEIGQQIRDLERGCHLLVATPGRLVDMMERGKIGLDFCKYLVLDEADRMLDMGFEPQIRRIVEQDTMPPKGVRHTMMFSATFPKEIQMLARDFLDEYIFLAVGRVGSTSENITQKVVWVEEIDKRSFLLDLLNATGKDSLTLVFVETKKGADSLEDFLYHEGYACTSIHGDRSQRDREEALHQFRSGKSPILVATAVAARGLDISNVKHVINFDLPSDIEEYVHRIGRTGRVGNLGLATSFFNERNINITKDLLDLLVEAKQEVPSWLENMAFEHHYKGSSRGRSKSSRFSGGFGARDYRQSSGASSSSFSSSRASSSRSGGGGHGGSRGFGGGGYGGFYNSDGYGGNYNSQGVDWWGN
UniProt Q6ZQ08: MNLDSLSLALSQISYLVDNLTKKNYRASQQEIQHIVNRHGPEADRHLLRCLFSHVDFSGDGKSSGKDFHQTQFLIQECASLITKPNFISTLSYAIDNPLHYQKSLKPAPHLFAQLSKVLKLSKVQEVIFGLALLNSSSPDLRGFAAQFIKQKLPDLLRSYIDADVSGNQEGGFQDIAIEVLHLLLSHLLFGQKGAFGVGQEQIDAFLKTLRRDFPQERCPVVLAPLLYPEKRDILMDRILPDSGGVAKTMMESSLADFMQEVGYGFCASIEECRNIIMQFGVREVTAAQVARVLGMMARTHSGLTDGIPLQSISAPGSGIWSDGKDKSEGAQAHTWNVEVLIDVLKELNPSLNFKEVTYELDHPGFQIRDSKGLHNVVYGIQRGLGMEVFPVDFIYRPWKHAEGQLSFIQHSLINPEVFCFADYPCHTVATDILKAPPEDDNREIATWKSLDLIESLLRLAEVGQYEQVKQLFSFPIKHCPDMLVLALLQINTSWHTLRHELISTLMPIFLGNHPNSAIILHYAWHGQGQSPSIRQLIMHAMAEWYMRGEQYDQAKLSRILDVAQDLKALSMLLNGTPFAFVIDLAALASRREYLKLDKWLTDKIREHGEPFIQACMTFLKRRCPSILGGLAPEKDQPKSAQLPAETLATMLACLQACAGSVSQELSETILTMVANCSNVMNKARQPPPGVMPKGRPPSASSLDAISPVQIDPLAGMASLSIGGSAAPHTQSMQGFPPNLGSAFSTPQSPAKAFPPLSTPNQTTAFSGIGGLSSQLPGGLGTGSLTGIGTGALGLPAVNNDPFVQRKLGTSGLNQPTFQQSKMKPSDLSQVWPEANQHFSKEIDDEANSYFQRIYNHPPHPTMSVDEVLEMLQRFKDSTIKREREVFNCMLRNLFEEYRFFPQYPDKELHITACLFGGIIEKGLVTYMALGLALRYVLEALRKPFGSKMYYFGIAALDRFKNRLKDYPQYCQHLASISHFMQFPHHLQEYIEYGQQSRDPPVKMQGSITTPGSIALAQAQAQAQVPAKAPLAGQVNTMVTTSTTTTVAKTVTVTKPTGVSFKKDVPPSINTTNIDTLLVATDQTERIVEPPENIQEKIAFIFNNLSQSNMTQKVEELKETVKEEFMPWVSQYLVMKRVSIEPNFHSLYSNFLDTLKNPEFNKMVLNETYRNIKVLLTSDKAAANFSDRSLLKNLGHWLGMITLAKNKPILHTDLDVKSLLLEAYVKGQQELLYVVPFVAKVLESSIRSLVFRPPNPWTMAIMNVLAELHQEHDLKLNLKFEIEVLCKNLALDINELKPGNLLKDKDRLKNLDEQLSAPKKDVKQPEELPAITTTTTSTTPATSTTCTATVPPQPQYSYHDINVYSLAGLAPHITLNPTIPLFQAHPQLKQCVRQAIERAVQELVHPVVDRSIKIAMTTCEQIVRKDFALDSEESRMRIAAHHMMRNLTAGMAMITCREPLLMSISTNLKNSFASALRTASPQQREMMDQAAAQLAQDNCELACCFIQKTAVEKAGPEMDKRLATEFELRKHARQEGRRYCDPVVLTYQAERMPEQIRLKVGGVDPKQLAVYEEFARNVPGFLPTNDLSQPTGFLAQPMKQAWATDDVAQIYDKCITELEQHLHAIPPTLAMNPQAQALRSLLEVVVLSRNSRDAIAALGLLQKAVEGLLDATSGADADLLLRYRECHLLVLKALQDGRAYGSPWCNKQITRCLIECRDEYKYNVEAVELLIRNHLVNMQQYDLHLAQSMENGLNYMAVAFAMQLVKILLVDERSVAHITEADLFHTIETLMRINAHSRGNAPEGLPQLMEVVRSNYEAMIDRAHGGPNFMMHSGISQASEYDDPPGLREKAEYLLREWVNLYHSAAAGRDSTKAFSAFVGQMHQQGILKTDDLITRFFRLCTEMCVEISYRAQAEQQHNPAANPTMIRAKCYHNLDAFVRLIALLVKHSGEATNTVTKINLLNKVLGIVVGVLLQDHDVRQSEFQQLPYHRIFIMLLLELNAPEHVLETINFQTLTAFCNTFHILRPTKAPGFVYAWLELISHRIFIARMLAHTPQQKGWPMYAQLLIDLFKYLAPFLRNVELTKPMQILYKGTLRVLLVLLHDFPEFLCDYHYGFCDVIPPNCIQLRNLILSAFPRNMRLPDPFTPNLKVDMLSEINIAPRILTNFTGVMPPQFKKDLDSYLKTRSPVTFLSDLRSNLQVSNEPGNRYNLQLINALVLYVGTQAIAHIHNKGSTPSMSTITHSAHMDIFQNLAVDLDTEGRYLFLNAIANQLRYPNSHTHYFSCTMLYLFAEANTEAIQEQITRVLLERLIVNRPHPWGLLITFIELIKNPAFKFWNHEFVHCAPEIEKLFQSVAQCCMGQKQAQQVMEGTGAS

How the values were obtained:
[1] = molecular target: GST-DDX6^Mut6, recombinant (UniProt P54823); assay: pull-down; GST fusion proteins (10 μg) immobilised on Glutathione Sepharose 4B, incubated with purified His-MBP-DDX3X^166-590 in RIPA buffer; western blot; both purified
[2] = molecular target: DDX6^Mut6 of the co-IP of Supplementary Fig. S6B (UniProt P54823); assay: co-IP; co-IP of wild-type, truncated and mutant DDX6 proteins (Supplementary Fig. S6A, B); cells not given; western blot
[3] = molecular target: DDX6^Mif2 of the co-IP of Supplementary Fig. S6B (UniProt P54823); assay: as above
[4] = molecular target: DDX6^Mut1 of the co-IP of Supplementary Fig. S6B (UniProt P54823); assay: as above

| binding [1] | binding [2] | binding [3] | binding [4] | Substance |
| --- | --- | --- | --- | --- |
| binds |  |  |  | 6xHis-MBP-DDX3X^166-590 (from UniProt Q62167 166-590) (domain or fragment) |
|  | binds | binds |  | CNOT1 (from UniProt Q6ZQ08 1-2375) |
|  | binds | binds | binds | DDX3X found in the co-IP experiments of Supplementary Fig. S6 (from UniProt Q62167 1-662) |

These are yes or no findings as the source states them, for the method shown. Binding can be weak; no strength is given. For part of these data: In cells and extracts the contact can be indirect.
